Laboratory results as given in patent US20250034248A1 (ALBERT EINSTEIN COLLEGE OF MEDICINE, published 2025).
These are yes or no findings as the source states them, for the method shown. Some entries that bind do so weakly or less than the wild type.

Protein sequences, listed by entry. Tags and fused reporters are not part of them. Lines headed by an entry give the natural chain unless they say otherwise; changes in a name come on top.
UniProt Q8TDQ0: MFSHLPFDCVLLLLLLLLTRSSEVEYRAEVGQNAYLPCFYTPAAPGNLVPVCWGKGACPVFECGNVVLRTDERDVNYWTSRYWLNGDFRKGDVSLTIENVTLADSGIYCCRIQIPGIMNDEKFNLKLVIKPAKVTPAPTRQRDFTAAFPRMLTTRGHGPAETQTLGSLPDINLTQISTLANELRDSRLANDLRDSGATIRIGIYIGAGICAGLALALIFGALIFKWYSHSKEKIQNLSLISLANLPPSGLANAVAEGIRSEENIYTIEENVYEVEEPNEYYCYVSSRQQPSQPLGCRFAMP

Tests used:
[1] = target: human Tim-3 expressed on cell lines (human) (UniProt Q8TDQ0); assay: FACS on a cell line expressing human Tim-3
[2] = target: human Tim-3 expressed on cell lines (human) (UniProt Q8TDQ0); assay: FACS on cell lines expressing human Tim-3

binding [1]: binds
binding [2]: binds
B1: mAb 15B4 (antibody, V domains shown)
VH: EVQLQQSGAEVVRPGALVKLSCKASGFNIKDYYMHWVRQRPEQGLEWIGWIDPENDNTIYDPKFQDRASITADTSSNTAYLQLSSLTSEDTAVYYCARDFGYVAWLVYWGQGTLVTVSA
VL: DIVMTQSQEFMSTSVGDRVSITCKASQNVDTAVAWYQQKPGQSPKLLIYSASNRYTGVPDRFTGTGSGTDFTLTINNMQSEDLADYFCQQYSSYPTFGGRTKLEIKR
notes: Mouse hybridoma antibody, IgG1 with kappa chain
